No constants are given. Whether binding was seen depends on the method and setting. Some results given as binding are weak or reduced against the parent protein; the word gives no strength.
What was measured:
[1] = target: human CD40 on primary human cells (blood CD20+ B cells, tonsillar B cells, monocyte-derived dendritic cells) (human) (UniProt P25942); experiment: flow cytometry on human whole blood, anti-PEG detection, gate on CD20+ B cells
[2] = target: wild type cynomolgus monkey CD40 Fc fusion (Macaca fascicularis (cynomolgus monkey); human); experiment: SPR (ProteOn XPR36), dAb over CD40-Fc captured by anti-human IgG(Fc)

Chains of the proteins cited; added tags and fusions are not shown. Lines headed by an entry give the natural chain unless they say otherwise; changes in a name come on top.
UniProt P25942: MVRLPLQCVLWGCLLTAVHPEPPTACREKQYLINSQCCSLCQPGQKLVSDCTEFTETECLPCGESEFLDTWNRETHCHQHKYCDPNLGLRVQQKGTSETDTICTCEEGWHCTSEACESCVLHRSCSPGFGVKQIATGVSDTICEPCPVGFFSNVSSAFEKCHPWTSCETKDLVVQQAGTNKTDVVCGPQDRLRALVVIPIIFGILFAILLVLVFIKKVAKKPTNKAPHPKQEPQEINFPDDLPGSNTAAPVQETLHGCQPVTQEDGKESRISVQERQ

binding [1]	binding [2]	Binder
binds		BMS3h38-2C-P40Br (protein, PEGylated; attachment residue not stated) VH: EVQLLASGGGLVQPGGSLRLSCAASGFTFEEEEMIWVRQAPGKGLEWVSAISGSGGSTYYADSVKGRFTISRDNSKNTLYLQMNSLRAEDTAVYYCGKEPFRYDYWGQGTLVTVSS
	binds	BMS3h-217-5 (protein) VL: DIQMTQSPSFLSASVGDRVTITCRASHFIATLLSWYQQKPGKAPKLLITYGSLLQSGVPSRFSGSGSGTDFTLTISSLQPEDFATYYCGQGVLWPPTFGQGTKVEIKR

The remaining lines, values behind:

Binder	binding [1]	binding [2]
BMS3h-217-23 (protein) VL: DIQMTQSPSSLSASVGDRVTITCRASHFIGSLLSWYQVKPGKAPKLLITYGSLLQSGVPSRFSGSGSGTDFTLTISSLQPEDFATYYCGQGVLWPATFGQGTTVEIKR		binds
BMS3h-217-16 (protein) VL: DIQMTQSPSSLSASVGDRVTITCRASHFIGTLLSWYQQKPRKAPKLLITYGSLLQSGVPSRFSGSGSGTDFTLTISSLQPEDFATYYCGQGVLWPPTFGQGTKVEIKR		binds

— patent US20200199244A1
